# Test results reported in patent US8772449B2, “Cell-penetrating peptides” (Toray Industries, Inc., priority 2009, dated 2014).
# Part of at least one peptide drawing is inferred or uncertain, most often the ends. Some of these results come from one statement about several compounds together. Ends that are not written are not given here.
# Assays:
# HeLa cells = assay: Evaluation of promotion of insulin transfer into cells (rhodamine-labeled insulin incorporated, fluorescence intensity of lysate); format: cell-based; conditions: Example 10, peptides whose amino termini are not labeled, incubation 5 hours, FIG. 13
# Experimental: In DMEM medium supplemented with 10% FBS, 0.2 ml of HeLa cells were plated on a 96-well glass bottom plate, and the cells were cultured at 37° C. for 48 to 72 hours to allow the cells to adhere to the bottom surface.
# The rhodamine-labeled insulin was prepared by the following method. […] To the resulting solution, 4 mg of NHS-rhodamine (Pierce) dissolved in 0.5 ml of DMSO was added, and the reaction was allowed to proceed at room temperature overnight.
# Further, the amount of fluorescein incorporated into the cells was measured by the same method as in Example 1.
# [1] = Intestinal administration of insulin with peptide (ileal loop) to rats; format: in vivo; conditions: Example 8, insulin 50 IU/kg with 0.5 mM peptide, male SD rat, FIG. 9
# Experimental: A silicone tube was […] cm distant from the ileocecal junction toward the ileum, and a feeding needle was inserted at a position about 10 cm upward therefrom. Further, sutures were passed through an area of 6 cm between these. From the feeding needle, 20 ml of phosphate buffered saline (PBS) at pH 7.4 prewarmed to 37° C. was fed at a flow rate of 5 ml/min. to allow discharging of the contents, and the silicone tube was plugged, followed by administering 1 ml of PBS prewarmed to 37° C. from the feeding needle and keeping it retained for 30 minutes. After the administration, the feeding needle was quickly plugged and the intestinal tract was returned into the abdominal cavity, followed by closing the site of incision with a clip and allowing the rat to keep still. […] The rat during the experiment was fixed on its back on a hot plate kept at 37° C. by a hot-water circulating pump to regulate the body temperature. […] Also for rats to which the same quantity of the insulin solution alone was subcutaneously administered, the blood collection and the measurement were carried out in the same manner.
Substance,"rhodamine-labeled insulin incorporated into the cells, of the amount added (HeLa cells)","blood glucose level after intestinal administration, compared to insulin alone [1]"
"KWFKIQMQIRRWKNRK [SEQ ID NO:9, K W F K I Q M Q I R R W K N R K]",not less than 0.7%,–
KWFRIQMQIKKWRNRR [SEQ ID NO:4],–,evident decrease
"SEQ ID NO:6: Random peptide, cell membrane non-permeable; sequence not printed (EYDLSTAGGAAAC; Synthetic peptide random peptide)",not more than 0.05%,–
"SEQ ID NO:11: Random peptide 2, confirmed not to be a cell-penetrating peptide; sequence not printed (GLDKSSYRIDTFAAHEVAGC; Synthetic peptide random peptide 2)",not more than 0.05%,–
